Results on 1 substance are retold here after patent US20120148565A1.

Amino acid sequences for entries named in this document (tags omitted). A change or cut given only in a name is not applied to a line headed by its entry.
UniProt Q9N2Z7: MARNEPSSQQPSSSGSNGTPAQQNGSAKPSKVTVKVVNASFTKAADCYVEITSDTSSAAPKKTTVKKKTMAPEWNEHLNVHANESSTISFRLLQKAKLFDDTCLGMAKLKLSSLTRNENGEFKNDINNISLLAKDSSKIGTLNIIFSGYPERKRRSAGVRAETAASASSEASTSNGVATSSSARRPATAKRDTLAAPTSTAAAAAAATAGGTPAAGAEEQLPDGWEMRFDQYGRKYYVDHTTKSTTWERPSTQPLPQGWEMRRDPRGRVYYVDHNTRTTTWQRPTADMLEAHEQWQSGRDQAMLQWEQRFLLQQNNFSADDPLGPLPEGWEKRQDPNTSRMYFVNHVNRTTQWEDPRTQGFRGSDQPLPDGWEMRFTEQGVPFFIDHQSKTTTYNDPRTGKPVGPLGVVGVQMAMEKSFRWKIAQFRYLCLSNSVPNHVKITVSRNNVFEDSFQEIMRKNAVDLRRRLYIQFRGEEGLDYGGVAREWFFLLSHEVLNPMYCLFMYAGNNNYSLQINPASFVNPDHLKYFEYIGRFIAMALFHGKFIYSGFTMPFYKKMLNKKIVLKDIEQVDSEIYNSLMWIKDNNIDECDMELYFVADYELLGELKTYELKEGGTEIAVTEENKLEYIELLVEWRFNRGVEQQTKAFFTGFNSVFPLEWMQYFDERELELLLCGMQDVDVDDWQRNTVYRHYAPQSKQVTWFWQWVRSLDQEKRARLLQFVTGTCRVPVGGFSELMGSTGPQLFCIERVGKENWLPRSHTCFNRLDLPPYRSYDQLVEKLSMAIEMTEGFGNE

Results are given in words; binding and its absence hold for the method and conditions named. Binding seen in cells or lysates may run through a third protein. Some results given as binding are weak or reduced against the parent protein; the word gives no strength. Sequences can lack the tags named with a protein.

The target in this experiment is T1, UBC-18-Myc fusion protein (C. elegans UBC-18, full length, myc-His tag from pcDNA6/myc-His, expressed in NIH3T3 cells) (C. elegans) (UniProt Q21633).
T1 sequence: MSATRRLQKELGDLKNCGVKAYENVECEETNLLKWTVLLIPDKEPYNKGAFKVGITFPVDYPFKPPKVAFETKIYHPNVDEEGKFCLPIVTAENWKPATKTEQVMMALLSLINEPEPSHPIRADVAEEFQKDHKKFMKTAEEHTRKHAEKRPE
Description: GST pull-down on glutathione agarose beads from NIH3T3 lysate, anti-myc immunoblot.

For the substance “GST fused WWP-1 (C. elegans HECT E3 ubiquitin ligase WWP-1, full length, wild type, N-terminal GST from pGEX-KG) (from UniProt Q9N2Z7 1-794) (enzyme)”, the binding entry is listed as “binds”.
